{"source": "patent US20200010563A1", "about": "(PROTHENA BIOSCIENCES, published 2020)", "key": {"[1]": {"molecular_target": "T1, human MCAM protein (form in the assay not stated) (human) (UniProt P43121)", "T1 sequence": "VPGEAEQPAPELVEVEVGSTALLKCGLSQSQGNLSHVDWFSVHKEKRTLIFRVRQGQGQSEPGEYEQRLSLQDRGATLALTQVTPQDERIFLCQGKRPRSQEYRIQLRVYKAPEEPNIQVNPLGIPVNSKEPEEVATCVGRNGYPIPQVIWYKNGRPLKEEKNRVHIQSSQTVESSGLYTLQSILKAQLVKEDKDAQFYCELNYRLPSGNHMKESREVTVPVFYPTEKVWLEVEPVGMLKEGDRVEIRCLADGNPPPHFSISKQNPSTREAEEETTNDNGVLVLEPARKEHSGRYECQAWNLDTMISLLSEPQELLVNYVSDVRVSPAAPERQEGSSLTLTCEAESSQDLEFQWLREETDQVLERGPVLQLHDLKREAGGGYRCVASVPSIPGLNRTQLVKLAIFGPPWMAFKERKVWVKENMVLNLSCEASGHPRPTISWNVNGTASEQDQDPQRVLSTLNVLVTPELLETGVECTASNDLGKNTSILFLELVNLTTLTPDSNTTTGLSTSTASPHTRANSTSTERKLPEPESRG", "test": "summary of Examples 2-3"}, "[2]": {"molecular_target": "T2, human MCAM expressed on transfected CHO cells (human) (UniProt P43121)", "T2 sequence": "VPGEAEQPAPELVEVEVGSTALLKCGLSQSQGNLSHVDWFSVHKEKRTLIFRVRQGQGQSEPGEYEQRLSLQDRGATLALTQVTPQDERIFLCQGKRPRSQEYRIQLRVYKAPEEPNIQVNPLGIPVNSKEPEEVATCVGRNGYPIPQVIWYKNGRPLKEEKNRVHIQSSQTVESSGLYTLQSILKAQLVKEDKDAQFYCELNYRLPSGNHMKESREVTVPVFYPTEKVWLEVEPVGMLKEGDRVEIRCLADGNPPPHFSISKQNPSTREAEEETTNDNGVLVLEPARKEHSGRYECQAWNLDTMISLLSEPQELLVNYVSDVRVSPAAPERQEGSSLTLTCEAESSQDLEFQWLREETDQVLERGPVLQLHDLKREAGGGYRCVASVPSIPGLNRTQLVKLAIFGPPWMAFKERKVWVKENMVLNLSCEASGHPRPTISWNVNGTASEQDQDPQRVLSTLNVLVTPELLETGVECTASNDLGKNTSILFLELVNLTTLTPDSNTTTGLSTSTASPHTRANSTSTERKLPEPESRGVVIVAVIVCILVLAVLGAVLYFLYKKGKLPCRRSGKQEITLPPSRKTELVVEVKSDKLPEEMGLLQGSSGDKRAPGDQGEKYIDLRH", "test": "affinity experiments, data not shown; human MCAM on the surface of living cells"}, "[3]": {"molecular_target": "T3, combination of human MCAM domains 1 and 2 (amino acids 19-242) hFc construct (human) (UniProt P43121)", "T3 sequence": "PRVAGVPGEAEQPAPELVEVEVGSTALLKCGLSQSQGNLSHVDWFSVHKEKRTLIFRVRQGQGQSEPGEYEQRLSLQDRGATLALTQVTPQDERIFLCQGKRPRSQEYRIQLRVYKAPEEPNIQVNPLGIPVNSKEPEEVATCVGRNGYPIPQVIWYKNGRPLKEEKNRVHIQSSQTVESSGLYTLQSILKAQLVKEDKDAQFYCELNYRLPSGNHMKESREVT", "test": "ForteBio BLI, MCAMhFc domains on anti-human IgG Fc sensors, antibody 5 ug/ml"}, "[4]": {"molecular_target": "T1, human MCAM protein (form in the assay not stated) (human)", "test": "BLI (ForteBio Octet QK); antigen not named"}}, "note": "These are yes or no findings as the source states them, for the method shown. Some entries that bind do so weakly or less than the wild type.", "data": [{"binder": "mouse anti-human MCAM monoclonal antibody clone 1174.1.3 (antibody, V domains shown, Mouse hybridoma monoclonal) VH: QIQLVQSGPELKKPGETVKISCKASGYTFTNYGMNWVKQAPGKGLKWMGWINTYTGEPTYADDFKGRFALSLETSASTAYLQINNLKNEDMATYFCARYRYNKYERAMDYWGQGTSVTVSS VL: DIVLTQSPASLAVSLGQRATISCRASKSVSTSGYSYMYWYQQKPGQPPKLLIYLASNLESGVPARFSGSGSGTDFTLNIHPVEEEDAATYYCQHSRELPFTFGSGTKLEIK", "values": [{"measurement": "binding", "setting": "[1]", "value": "binds"}, {"measurement": "binding", "setting": "[2]", "value": "binds"}]}, {"binder": "mouse anti-human MCAM monoclonal antibody clone 1414.1.2 (antibody, V domains shown, Mouse hybridoma monoclonal) VH: EIQLQQTGPELVKPGASVKISCKASGYSFTDYIMLWVKQSHGKSLEWIGNINPYSGSSGYNLKFKGKATLTVDKSSSTAYMQLNSLTSEDSAVYYCARGKDFAMDYWGQGTSVTVSS VL: DIVMSQSPSSLAVSAGEKVTMSCKSSQSLLNSSTRKNFLAWYQQKPGQSPKLLIYWASTRESGVPDRFTGSGSGTDFTLTISSVQAEDLAVYYCKQSYNRYTFGGGTKLEIK", "values": [{"measurement": "binding", "setting": "[1]", "value": "binds"}, {"measurement": "binding", "setting": "[2]", "value": "binds"}]}, {"binder": "mouse anti-human MCAM monoclonal antibody clone 1415.1.1 (antibody, V domains shown, Mouse hybridoma monoclonal) VH: QVQLQQPGAELVQPGAPVKLSCKASGYIFTSYWMNWVKQRPGRGLEWIGRIDPSDSKIHYNQKFKDKATLTVDRSSSTAYIQLGSLTSEDSAVYYCAKEGGLRRGDYAMDYWGQGTSVTVSS VL: DIVMTQSPATLSVTPGDRVSLSCRASQSISDYLHWYQQKSHESPRLLIKYASQSISGIPSRFSGSGSGSDFTLSINSVEPEDVGVYYCQNGHNFPRTFGGGTKLEIK", "values": [{"measurement": "binding", "setting": "[1]", "value": "binds"}, {"measurement": "binding", "setting": "[2]", "value": "binds"}]}, {"binder": "mouse anti-human MCAM monoclonal antibody clone 1749.1.3 (antibody, V domains shown, Mouse hybridoma monoclonal; also called m1749) VH: DVKLVESGGDLVKPGGSLKLSCAASGFTFSSYIMSWVRQTPEKRLEWVATISSGGSSTYYPDSVKGRFTISRDNAKNTLYLQMSSLKSEDTAMYYCTRDDDYDVKVFAYWGQGTLVTVSA VL: DIVMSQSPSSLAVSAGEKVTMNCKSSRSLLNSRIRKNYLAWYQQKPGQSPKLLIYWASTRESGVPDRFTGSGSGTDFTLTISSVQAEDLAVYYCKQSYNLLTFGAGTKLELK", "values": [{"measurement": "binding", "setting": "[1]", "value": "binds"}, {"measurement": "binding", "setting": "[2]", "value": "binds"}]}, {"binder": "rat anti-human MCAM monoclonal antibody clone 2120.4.19 (antibody, V domains shown) VH: QVQLKESGPGLVQPSQTLSLTCTVSGFSLTSNGVSWVRQPPGKGLEWIAAISSGGTTYYNSAFKSRLSISRNTSKSQVLLKMNSLQTEDTAMYFCARRYGYGWYFDFWGPGTMVTVSS VL: DIRMTQSPSLLSASVGDRVTLNCKASQNIYNSLAWYQQKLGEGPKVLIFNANSLQTGIPSRFSGSGSGTDFTLTISSLQPEDFATYFCQQFYSGYTFGAGTKLELK", "values": [{"measurement": "binding", "setting": "[1]", "value": "binds"}, {"measurement": "binding", "setting": "[3]", "value": "binds"}, {"measurement": "binding", "setting": "[2]", "value": "binds"}]}, {"binder": "rat anti-human MCAM monoclonal antibody clone 2107.4.10 (antibody, V domains shown) VH: QVQLKESGPGLVQSSQTLSLTCTVSGFSLTSNGVSWVRQPPGKGLEWIAAISSGGSTYYNSAFKSRLSISRNTSKSQVLLKMNSLQTEDTGMYFCARHRPFYFDYWGQGVMVTVSS VL: DIQVTQSPSLLSASVGDRVTLNCKGSQNIYKSLAWFRLKRGEAPKLLIYDANSLQTGIPSRFSGSGSGTDFTLTITSLQPEDVATYFCQQYYSGYTFGAGTKLELK", "values": [{"measurement": "binding", "setting": "[1]", "value": "binds"}, {"measurement": "binding", "setting": "[3]", "value": "binds"}, {"measurement": "binding", "setting": "[2]", "value": "binds"}]}, {"binder": "humanized 1749 antibody hu1749VH3VL3 (Hu1749VHv3 and Hu1749VLv3) (antibody, V domains shown) VH: EVKLVESGGGLVQPGGSLRLSCAASGFTFSSYIMSWVRQTPEKRLEWVATISSGGSSTYYPDSVKGRFTISRDNAKNTLYLQMSSLKSEDTAMYYCTRDDDYDVKVFAYWGQGTLVTVSS VL: DIVMTQSPSSLAVSLGERVTINCKSSRSLLNSRIRKNYLAWYQQKPGQSPKLLIYWASTRESGVPDRFSGSGSGTDFTLTISSLQAEDVAVYYCKQSYNLLTFGQGTKVEIKR", "values": [{"measurement": "binding", "setting": "[4]", "value": "binds"}]}]}
